Laboratory results published in PubChem BioAssay AID1347076 (National Center for Advancing Translational Sciences (NCATS), 2019).
Screen size: about 400,000 compounds; about 13,000 (3.2%) were called active. Inconclusive results, whose numbers are uncertain, are shown with a selection of clear calls. Calls follow the shape of the dose curve; as a rule, active = well fitted cell-killing curve with a large enough effect; inconclusive = small, poorly fitted or top-dose-only effect, or effect the other way; inactive = flat fitted curve, though single readings scatter. A potency beside an inconclusive call is a rough fit, not a confirmed value.

experiment: qHTS assay for MDR1-selective chemotherapeutics: Primary screen using the drug-selected MDR subline cells KB-V1; settings: KB-V1 MDR cells viability, CellTiter-Glo, 72 h; series mostly up to 46.1 µM; also: nearly all actives have a fitted effect of over 60% in size
Procedure, shortened: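 Potencies derive from concentration-effect curves fitted to normalized luminescence (CellTiter-Glo) of KB-V1 cells treated for 72 h at 37 degrees C in phenol-red-free DMEM containing 10% FBS.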
Potency is read from the fitted curve at half-maximal effect.

SMILES | Potency
Cc1ccc(C(=O)Nc2nc(-c3cccnc3)cs2)o1 | inconclusive: 16.4 µM [cytotoxic, single point]
CCOc1ccc(C(C)NC(=O)C2CCN(S(=O)(=O)c3ccc(OC)cc3)CC2)cc1OCC (configuration not stated) | active: 20.6 µM
COc1ccc(CNC(=O)C2Cc3c(-c4ccccc4)ccnc3O2)cc1OC (configuration not stated) | inconclusive: 10.3 µM [cytotoxic, partial curve]
CCCOc1ccc(F)cc1-c1cc(C(=O)Nc2ccc(C)c(NS(C)(=O)=O)c2)[nH]n1 | active: 23.1 µM
O=C(COC(=O)COc1ccc(Br)cc1)Nc1ccc2c(c1)OCCO2 | inactive
CCN(CC)S(=O)(=O)c1ccc(Cl)c(C(=O)Nc2cc(C)nn2-c2ccccc2)c1 | inconclusive: 8.2 µM [cytotoxic, partial curve]
CC1CC(C)CN(CCCNC(=O)c2csc3c2CCCC3)C1 (configuration not stated) | active: 16.4 µM
CCn1cc(CNCc2ccc(OCC(O)CN(C)Cc3ccccc3)cc2)cn1 (configuration not stated) | inactive
COc1cccc(-c2ccc(CN3C(C)C(=O)N(Cc4cn(Cc5ccco5)nn4)CCS3(=O)=O)cc2)c1OC (configuration not stated) | inconclusive: 29.1 µM [cytotoxic, single point]
Cc1nc(N2CCOCC2)c2oc3ccccc3c2n1 | active: 14.6 µM
O=C(CSc1nnc(-c2cccnc2)o1)Nc1ccccc1F | inactive
Cc1ccnc2c([N+](=O)[O-])cccc12 | inactive
CCN1C(=O)[C@H]2[C@H]3CN=C(SCc4ccc(Cl)cc4)N3[C@@](Cc3ccccc3)(C(=O)OC)[C@H]2C1=O | inconclusive: 25.9 µM [cytotoxic, single point]
COc1cc([N+](=O)[O-])cc(/C=N/NC(=O)C(C)Nc2cccc3ccccc23)c1O (configuration not stated) | inconclusive: 16.4 µM [cytotoxic, partial curve]
COc1ccccc1N1CCN(S(=O)(=O)CCNC(=O)C2CCCCC2)CC1 | inactive
COc1ccc(-c2sc3cc4c(cc3c2C#CC2(N)CCCCC2)OCO4)cc1 | inconclusive: 23.1 µM [cytotoxic, single point]
O=C(Nc1cccc(C2OCCCO2)c1)c1cccs1 | inconclusive: 23.1 µM [cytotoxic, single point]
CCCc1cc(=O)oc2cc(C)cc(OC(C)C(=O)NCc3cccnc3)c12 (configuration not stated) | inconclusive: 16.4 µM [cytotoxic, single point]
COc1cccc(CNC(=O)c2c(C)nn(-c3cccc(C)c3)c2-n2cccc2)c1 | inconclusive: 5.17 µM [cytotoxic, partial curve, poor fit]
O=C(NCCc1ccccc1)c1ccc(CSc2nc3cccnc3n2Cc2ccc(F)cc2)cc1 | inactive
CCN(CC(=O)Nc1ccc(NC(C)=O)cc1)C(=O)c1cccc(-n2cccc2)c1 | inconclusive: 3.26 µM [rising, full curve]
O=C(C1=C(O)C(=O)N(c2ncccn2)C1c1ccc(Cl)c(Cl)c1)c1ccco1 (configuration not stated) | inactive
COc1ccc(OC)c(S(=O)(=O)N2CCN(CC(O)COc3ccc(C#N)cc3)CC2)c1 (configuration not stated) | inconclusive: 14.6 µM [cytotoxic, partial curve]

3 compounds drawn at random from the list so far:
SMILES | Potency
Cc1nc(N2CCOCC2)c2oc3ccccc3c2n1 | active: 14.6 µM
COc1cc([N+](=O)[O-])cc(/C=N/NC(=O)C(C)Nc2cccc3ccccc23)c1O (configuration not stated) | inconclusive: 16.4 µM [cytotoxic, partial curve]
Cc1ccc(C(=O)Nc2nc(-c3cccnc3)cs2)o1 | inconclusive: 16.4 µM [cytotoxic, single point]

(list continues)

SMILES | Potency
CC1(C)Cc2c(c(N3CCCC3)nc3sc4c(N5CCN(CCO)CC5)ncnc4c23)CO1 | inconclusive: 23.1 µM [cytotoxic, partial curve, poor fit]
COCCNc1nc(NCc2ccccc2OC)c2sccc2n1 | inconclusive: 2.59 µM [cytotoxic, full curve]
Cc1cc2cc(CNC(=O)Cc3ccc([N+](=O)[O-])cc3)ccc2[nH]1 | inconclusive: 29.1 µM [cytotoxic, single point]
CC(C)C1N(c2ccccc2)C(N)=C(C#N)C1(C#N)C#N (configuration not stated) | inconclusive: 29.1 µM [cytotoxic, single point]
Cc1cccc(NC(=O)c2cc(S(=O)(=O)N(C)c3ccc(F)cc3)ccc2Cl)n1 | inconclusive: 6.51 µM [cytotoxic, partial curve]
COc1ccc(C(=O)OCC(=O)NCC2CCCO2)c(F)c1 (configuration not stated) | inactive
COc1ccc2nc3c(cc2c1)c(NC(=O)c1cccs1)nn3CC(C)C | inconclusive: 1.84 µM [cytotoxic, full curve, poor fit]
COc1cc2nc(CN(C)Cc3ccc(Cl)cc3)[nH]c(=O)c2cc1OC | inconclusive: 5.17 µM [cytotoxic, partial curve]
CCC(C)(C)n1nnnc1C(c1cccnc1)N1CCC(Cc2ccccc2)CC1 (configuration not stated) | inconclusive: 4.61 µM [cytotoxic, partial curve]
CC(=O)c1ccc(NC(=O)C2CCC(CNS(=O)(=O)c3ccc(Br)s3)CC2)cc1 (configuration not stated) | inconclusive: 20.6 µM [rising, single point]
O=C(Nc1ccn(Cc2ccc(Cl)cc2)n1)c1ccccc1 | inconclusive: 23.1 µM [cytotoxic, partial curve, poor fit]
CN(CCc1nc2ccccc2[nH]1)Cc1nc(CC2CC2)no1 | inconclusive: 29.1 µM [cytotoxic, single point]
COc1ccc(C=O)cc1C1=CC(=O)C[C@H](c2ccc(Cl)cc2)C1 | inconclusive: 25.9 µM [cytotoxic, single point]
CC(C)C[C@H](NC(=O)N1CCn2c1nc1ccccc12)C(=O)N[C@@H](C(=O)O)c1ccccc1 | inconclusive: 18.4 µM [rising, partial curve, poor fit]
O=C(CCl)Nc1cccc(S(=O)(=O)N2CCCCCC2)c1 | active: 23.1 µM
CN(Cc1nccn1C)C(=O)c1ccc2nc(Cc3ccccc3F)oc2c1 | inconclusive: 2.91 µM [cytotoxic, partial curve, poor fit]
CCc1ccc(Sc2cc(C(=O)NCc3ccccc3OC)c3ccccc3n2)cc1 | inconclusive: 16.4 µM [cytotoxic, single point]
CCC1(CC)NC(=O)N(CC(=O)N2N=C(c3ccc(Cl)cc3)CC2c2ccco2)C1=O (configuration not stated) | inconclusive: 29.1 µM [cytotoxic, single point]
Cc1c(C(=O)NCc2ccc(F)cc2)sc(=O)n1Cc1ccccc1 | inconclusive: 20.6 µM [cytotoxic, single point]
COc1ccc2[nH]c(C(=O)O)c(NS(=O)(=O)c3ccc(Cl)s3)c2c1 | inconclusive: 20.6 µM [rising, partial curve]
COC(=O)c1ccc(OCC2c3cc(OC)c(OC)cc3CCN2C(=O)Cc2ccc(OC)cc2)cc1 (configuration not stated) | inconclusive: 25.9 µM [cytotoxic, partial curve, poor fit]
COc1c(Cl)cccc1-c1cn2ccc(C)cc2n1 | inconclusive: 16.4 µM [cytotoxic, single point]
CC(NC(=S)Nc1ccccc1C(F)(F)F)C1CC2CCC1C2 (configuration not stated) | inconclusive: 18.4 µM [cytotoxic, single point]

Entries above that contain two or more sulfur atoms:
SMILES | Potency
CC(=O)c1ccc(NC(=O)C2CCC(CNS(=O)(=O)c3ccc(Br)s3)CC2)cc1 (configuration not stated) | inconclusive: 20.6 µM [rising, single point]
COc1ccc2[nH]c(C(=O)O)c(NS(=O)(=O)c3ccc(Cl)s3)c2c1 | inconclusive: 20.6 µM [rising, partial curve]

Going on with the list:

SMILES | Potency
O=C(Nc1ccccc1F)c1ccc2sc([C@H]3C[C@H](O)[C@@H](CO)O3)nc2c1 | inactive
COC(=O)C1=C(CS(=O)(=O)c2ccccc2)NC(=O)NC1c1ccc(OC)c(OC)c1 (configuration not stated) | inconclusive: 0.0065 µM [cytotoxic, full curve, poor fit]
Cc1cc(C)nc(/N=C(\N)Nc2ccc(-c3ccccc3)cc2)n1 | active: 16.4 µM
Cc1ccccc1OCCn1c(=S)[nH]c2c(N)ncnc21 | inactive
COc1cccc(CC(=O)Nc2ccc3c(c2)c(=O)n(C)n3-c2ccc(C(C)(C)C)cc2)c1 | inactive
COc1ccc(NC(=O)C(C)N2C(=O)c3ccccc3C2=O)cc1S(=O)(=O)N1CCOCC1 (configuration not stated) | inconclusive: 14.6 µM [rising, single point]
COc1cccc(N(CC(=O)NC2CCCC2)C(=O)Cn2nnc(-c3ccc(C)o3)n2)c1 | inconclusive: 9.2 µM [cytotoxic, partial curve]
O=Cc1c(OCc2ccccc2)ccc2ccccc12 | inconclusive: 29.1 µM [cytotoxic, partial curve, poor fit]
O=C(NCC12CC3CC(CC(C3)C1)C2)c1nn2cccnc2c1Cl | inconclusive: 14.6 µM [cytotoxic, partial curve]
CN(C)S(=O)(=O)c1ccc(NC(=O)c2cc(F)c(F)cc2Cl)cc1 | active: 23.1 µM
COc1ccc(CNC(=O)Cn2c(SCC(=O)Nc3ccc(OC)cc3)nc3ccccc32)cc1 | inactive
CCN(C(=O)COC(=O)c1ccccc1SCC(=O)N1CCCC1)C1CCS(=O)(=O)C1 (configuration not stated) | inactive
COC(=O)c1cn(C(=O)c2ccccc2Cl)c2ccccc12 | inactive
COc1cc(OC)cc(-c2n[nH]c(=S)n2-c2ccc3c(c2)OCO3)c1 | inconclusive: 20.6 µM [cytotoxic, single point]
COc1ccc(-c2ccc(Nc3ccc(S(=O)(=O)N4CCCC4)cc3)nn2)cc1OC | active: 13 µM
CCCc1ccc(C(=O)CCC(=O)NNC(=O)c2ccncc2)cc1 | inconclusive: 18.4 µM [cytotoxic, single point]
COc1ccc(OC)c(CNC(=O)c2cc3c(-c4ccc(OC)c(OC)c4)nn(C)c3s2)c1 | inconclusive: 25.9 µM [cytotoxic, single point]
COCCN1CCN(c2cc(-c3ccccc3)nc3cc(-c4cccc(F)c4)nn23)CC1 | inactive
Cc1ccc(S(=O)(=O)NC2c3cccc4cccc(c34)C2Sc2nc(C)cc(C)n2)cc1 (configuration not stated) | active: 5.17 µM
COc1ccc(NC(=O)CCN(c2ccc(OC)cc2)S(=O)(=O)c2ccc(C)c(C)c2)cc1 | active: 8.2 µM
CC(=O)Nc1ccc(S(=O)(=O)NCc2ccc(C)cc2)cc1 | inconclusive: 23.1 µM [cytotoxic, single point]
